Source: patent publication US20260250312A1, “ANTIBACTERIAL COMPOUNDS ELIMINATING DORMANT BACTERIAL CELLS” (UNIVERSITÉ D'AIX-MARSEILLE, priority 2022, published 2026)

Tested on: Escherichia coli (E. coli) persister cells
Test: Anti-persister activity test, persister cells
Assay type: cell-based
Conditions: survival rates 96 h
Method: Anti-persister activity test: Escherichia coli (E. coli) persister cells were generated and isolated as described by MARQUES, C. N. H. et al. (Applied and Environmental Microbiology 2014, Vol. 80, No. 22, pp. 6976-6991). E. coli persister cells were compared to E. coli non-persister cells. 1 mL persister or non-persister bacteria culture was added in a 1.5 mL microtube with each of the compounds to be tested or ciprofloxacin as a […], and incubated at 37° C. with 160 rpm shaking for 4 hours. After 4 hours treatment with the compounds, the microtubes were centrifuged at 3,500g for 5 minutes and the pellets were resuspended in 1 mL of fresh drug free RM broth (10 g/L M9 salt, 2% casamino acids, 1 mM MgCl2, 1% glycerol). Resuspended bacteria were then plated over LB agar plates and incubated at 37° C. Bacterial colonies were enumerated after 24, 48 and 96 hours to estimate the survival rate.

**Q.** For `COC(=O)[C@H](Cc1ccc(O)cc1)NC(=O)CC[C@@H](C)[C@H]1CCC2C3C(CC[C@@]21C)[C@@]1(C)CC[C@H](NCCCNCCNCCCN)C[C@H]1C[C@H]3O` (stereo partly drawn) [Compound S042, methyl ((4R)-4-((3S,5S,7R,10S,13R,17R)-3-((3-((2-((3-aminopropyl)amino)ethyl)amino)propyl)amino)-7-hydroxy-10,13-dimethylhexadecahydro-1H-cyclopenta[a]phenanthren-17-yl)pentanoyl)-L-tyrosinate], which “Ratio (Persisters/Non-persisters)” value (concentration used 125 μM) is on record?
**A.** Its value is 312.2.

**Q.** For `COC(=O)[C@H](Cc1ccccc1)NC(=O)CC[C@@H](C)[C@H]1CCC2C3C(CC[C@@]21C)[C@@]1(C)CC[C@H](NCCCNCCCCNCCCN)C[C@H]1C[C@H]3O` (stereo partly drawn) [Compound S014, methyl ((4R)-4-((3S,5S,7R,10S,13R,17R)-3-((3-((4-((3-aminopropyl)amino)butyl)amino)propyl)amino)-7-hydroxy-10,13-dimethylhexadecahydro-1H-cyclopenta[a]phenanthren-17-yl)pentanoyl)-L-phenylalaninate], which “Ratio (Persisters/Non-persisters)” value (concentration used 125 μM) is on record?
**A.** The value was 0.0.

**Q.** How did the “Ratio (Persisters/Non-persisters)” value (concentration used 62.5 μM) turn out when `COC(=O)[C@H](Cc1ccc(O)cc1)NC(=O)CC[C@@H](C)[C@H]1CCC2C3C(CC[C@@]21C)[C@@]1(C)CC[C@H](NCCCNCCCCNCCCN)C[C@H]1C[C@H]3O` (stereo partly drawn) [Compound S039, methyl ((4R)-4-((3S,5S,7R,10S,13R,17R)-3-((3-((4-((3-aminopropyl)amino)butyl)amino)propyl)amino)-7-hydroxy-10,13-dimethylhexadecahydro-1H-cyclopenta[a]phenanthren-17-yl)pentanoyl)-L-tyrosinate] was run?
**A.** The value was 0.0.

**Q.** `COC(=O)[C@@H](NC(=O)CC[C@@H](C)[C@H]1CCC2C3C(CC[C@@]21C)[C@@]1(C)CC[C@H](NCCCNCCNCCCN)C[C@H]1C[C@H]3O)C(C)C` (stereo partly drawn) [Compound S013, methyl ((4R)-4-((3S,5S,7R,10S,13R,17R)-3-((3-((2-((3-aminopropyl)amino)ethyl)amino)propyl)amino)-7-hydroxy-10,13-dimethylhexadecahydro-1H-cyclopenta[a]phenanthren-17-yl)pentanoyl)-L-valinate] was tested. Which “Ratio (Persisters/Non-persisters)” value (concentration used 250 μM) did it give?
**A.** The value was 0.0.

**Q.** `CC[C@@H](C)[C@H](NC(=O)CC[C@@H](C)[C@H]1CC[C@H]2[C@@H]3[C@H](O)C[C@@H]4C[C@@H](NCCCNCCCCNCCCN)CC[C@]4(C)[C@H]3CC[C@]12C)C(=O)OC` [Compound S044, methyl (2S,3R)-2-((4R)-4-((3S,5S,7R,10S,13R,17R)-3-((3-((4-((3-aminopropyl)amino)butyl)amino)propyl)amino)-7-hydroxy-10,13-dimethylhexadecahydro-1H-cyclopenta[a]phenanthren-17-yl)pentanamido)-3-methylpentanoate] was tested. Which “Ratio (Persisters/Non-persisters)” value (concentration used 62.5 μM) did it give?
**A.** The value was 0.0.

**Q.** `COC(=O)[C@H]1CCCN1C(=O)CC[C@@H](C)[C@H]1CCC2C3C(CC[C@@]21C)[C@@]1(C)CC[C@H](NCCCNCCNCCCN)C[C@H]1C[C@H]3O` (stereo partly drawn) [Compound S046, methyl ((4R)-4-((3S,5S,7R,10S,13R,17R)-3-((3-((2-((3-aminopropyl)amino)ethyl)amino)propyl)amino)-7-hydroxy-10,13-dimethylhexadecahydro-1H-cyclopenta[a]phenanthren-17-yl)pentanoyl)-D-prolinate] was tested. Which “Ratio (Persisters/Non-persisters)” value (concentration used 125 μM) did it give?
**A.** The value was 0.0.

**Q.** How did the “Ratio (Persisters/Non-persisters)” value (concentration used 62.5 μM) turn out when `COC(=O)[C@H](NC(=O)CC[C@@H](C)[C@H]1CCC2C3CC[C@@H]4C[C@@H](NCCCNCCCCNCCCN)CC[C@]4(C)C3C[C@H](O)[C@@]21C)C(C)C` (stereo partly drawn) [Compound S052, methyl ((4R)-4-((3S,5R,10S,12S,13R,17R)-3-((3-((4-((3-aminopropyl)amino)butyl)amino)propyl)amino)-12-hydroxy-10,13-dimethylhexadecahydro-1H-cyclopenta[a]phenanthren-17-yl)pentanoyl)-D-valinate] was run?
**A.** Its value is 0.0.

**Q.** For `O=C(O)c1cn(C2CC2)c2cc(N3CCNCC3)c(F)cc2c1=O` [Ciprofloxacin, ciprofloxacin, reference compound], which “Ratio (Persisters/Non-persisters)” value (concentration used 200 μM) is on record?
**A.** The value was 1617.7.

**Q.** How did the “Ratio (Persisters/Non-persisters)” value (concentration used 125 μM) turn out when `CC[C@H](C)[C@H](NC(=O)CC[C@@H](C)[C@H]1CC[C@H]2[C@@H]3[C@H](O)C[C@@H]4C[C@@H](NCCCNCCNCCCN)CC[C@]4(C)[C@H]3CC[C@]12C)C(=O)OC` [Compound S041, methyl (2S,3S)-2-((4R)-4-((3S,5S,7R,10S,13R,17R)-3-((3-((2-((3-aminopropyl)amino)ethyl)amino)propyl)amino)-7-hydroxy-10,13-dimethylhexadecahydro-1H-cyclopenta[a]phenanthren-17-yl)pentanamido)-3-methylpentanoate] was run?
**A.** Its value is 4.7.

**Q.** How did the “Ratio (Persisters/Non-persisters)” value (concentration used 250 μM) turn out when `COC(=O)[C@H](NC(=O)CC[C@@H](C)[C@H]1CCC2C3C(C[C@H](O)[C@@]21C)[C@@]1(C)CC[C@H](NCCCN(CCCN)CCCN)C[C@H]1C[C@H]3O)C(C)C` (stereo partly drawn) [Compound S060, methyl ((4R)-4-((3S,5S,7R,10S,12S,13R,17R)-3-((3-(bis(3-aminopropyl)amino)propyl)amino)-7,12-dihydroxy-10,13-dimethylhexadecahydro-1H-cyclopenta[a]phenanthren-17-yl)pentanoyl)-D-valinate] was run?
**A.** The value was 0.5.

**Q.** `COC(=O)[C@@H](Cc1ccccc1)NC(=O)CC[C@@H](C)[C@H]1CCC2C3C(CC[C@@]21C)[C@@]1(C)CC[C@H](NCCNCCNCCN)C[C@H]1C[C@H]3O` (stereo partly drawn) [Compound S010, methyl ((4R)-4-((3S,5S,7R,10S,13R,17R)-3-((2-((2-((2-aminoethyl)amino)ethyl)amino)ethyl)amino)-7-hydroxy-10,13-dimethylhexadecahydro-1H-cyclopenta[a]phenanthren-17-yl)pentanoyl)-D-phenylalaninate] was tested. Which “Ratio (Persisters/Non-persisters)” value (concentration used 250 μM) did it give?
**A.** Its value is 0.2.
